Laboratory results as given in PMC9630973.
No constants are given. Whether binding was seen depends on the method and setting. Binding can be weak; no strength is given. Sequences can lack the tags named with a protein. For some of these results: Binding seen in cells or lysates may run through a third protein. Blank lines part the entries; values can stand above or below the molecule they belong to.

The chains behind the UniProt entries cited, without tags or fusion partners. Where a name states a change or a piece, a line headed by the entry shows the natural chain unless it says otherwise.
UniProt A0A3Q7FUH8: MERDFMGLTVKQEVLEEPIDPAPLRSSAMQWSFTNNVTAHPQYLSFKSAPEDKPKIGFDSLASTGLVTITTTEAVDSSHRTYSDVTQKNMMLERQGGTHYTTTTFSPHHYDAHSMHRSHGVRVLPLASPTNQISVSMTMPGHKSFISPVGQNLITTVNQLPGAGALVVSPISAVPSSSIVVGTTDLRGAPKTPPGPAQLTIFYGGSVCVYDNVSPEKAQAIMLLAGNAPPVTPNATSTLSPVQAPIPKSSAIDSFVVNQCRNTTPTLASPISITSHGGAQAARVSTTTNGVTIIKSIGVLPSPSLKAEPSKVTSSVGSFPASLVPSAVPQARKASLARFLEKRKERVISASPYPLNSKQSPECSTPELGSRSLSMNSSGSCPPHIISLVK
UniProt A0A3Q7H988: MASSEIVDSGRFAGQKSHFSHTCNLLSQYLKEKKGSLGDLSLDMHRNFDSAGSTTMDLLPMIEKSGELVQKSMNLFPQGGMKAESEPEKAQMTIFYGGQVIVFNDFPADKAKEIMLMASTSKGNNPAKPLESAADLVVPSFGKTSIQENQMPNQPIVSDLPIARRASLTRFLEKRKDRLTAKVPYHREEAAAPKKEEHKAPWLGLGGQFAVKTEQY
UniProt A7XXZ0: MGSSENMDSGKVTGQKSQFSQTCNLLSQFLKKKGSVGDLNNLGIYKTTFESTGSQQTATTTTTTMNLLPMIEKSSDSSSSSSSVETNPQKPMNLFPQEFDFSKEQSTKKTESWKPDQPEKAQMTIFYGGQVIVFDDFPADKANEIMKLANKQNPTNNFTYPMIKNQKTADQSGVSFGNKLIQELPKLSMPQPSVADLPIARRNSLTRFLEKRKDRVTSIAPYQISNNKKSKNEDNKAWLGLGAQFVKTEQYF
UniProt B6D1Q5: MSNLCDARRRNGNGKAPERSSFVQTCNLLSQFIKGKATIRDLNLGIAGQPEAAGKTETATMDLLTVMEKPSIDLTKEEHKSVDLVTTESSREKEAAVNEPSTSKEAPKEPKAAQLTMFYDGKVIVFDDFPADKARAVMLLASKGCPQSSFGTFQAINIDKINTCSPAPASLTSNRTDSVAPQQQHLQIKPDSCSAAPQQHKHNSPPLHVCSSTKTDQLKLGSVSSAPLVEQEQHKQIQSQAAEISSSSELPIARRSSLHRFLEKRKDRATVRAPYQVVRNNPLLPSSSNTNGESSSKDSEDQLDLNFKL

Assays:
[1] = molecular target: BD-SlWRKY45 (tomato (Solanum lycopersicum)); experiment: two-hybrid; AD-SlJAZs or AD-fused SlJAZ7/SlJAZ11 domain constructs (pB42AD) with BD-SlWRKY45 (pLexA), in yeast (Fig. 1B, 2B)
[2] = molecular target: cLUC (C-terminal fragment of LUC)-fused SlWRKY45 (tomato (Solanum lycopersicum)); experiment: split reporter; firefly luciferase complementation imaging (LCI): nLUC and cLUC fusions coexpressed in N. benthamiana leaves, read 50 h after infiltration
[3] = molecular target: cYFP (C-terminal part of YFP)-fused SlWRKY45 (tomato (Solanum lycopersicum)); experiment: split reporter; BiFC: nYFP and cYFP fusions coexpressed in N. benthamiana leaves, confocal microscopy 50 h after injection
[4] = molecular target: MBP-fused SlWRKY45 (tomato (Solanum lycopersicum)); experiment: pull-down; MBP-SlWRKY45 or MBP on amylose resin (4 h, 4°C), incubated 2 h at 4°C with 200 μL extract of N. benthamiana leaves expressing myc-SlJAZ; anti-myc blot; only the target purified

Molecule: AD-SlJAZ4 (from UniProt A0A3Q7JB95)
binding [1]: binds

Molecule: AD-SlJAZ5 (from UniProt A0A3Q7FUH8)
binding [1]: binds

B2: SlJAZ7-nYFP (protein, UniProt Q9M723 1-228)
chain: MDSRMEIDFMDLNSKPKLSEMEKQHKKVSGMKWPFSLADLATHHEHTFFQNYKSTPIVSINSKNSSLNNYKSTIDPQYFRGTFPLLAKTSTYDSRKNYDNLSPNESTLTIFYMGEVHIFPGISPEKAELIIDLVSKSTTLHMDEILEKVMNKEKYEENKSDPSNASTNYAKGALAMARRATLARFLEKRKHRLIKARPYLYGENLSKFPFDIQQQEEETASSSVHWEN
binding [3]: binds

B4: myc-fused SlJAZ7 (protein, UniProt Q9M723 1-228)
chain: B2 chain
binding [4]: binds

The next lines start with the values.

binding [1]: binds
Molecule: AD-SlJAZ1 (from UniProt A0A3Q7H988)

binding [1]: binds
Molecule: AD-SlJAZ2 (from UniProt A7XXZ0)

binding [1]: binds
Molecule: AD-SlJAZ3 (from UniProt B6D1Q5)

binding [1]: binds
Molecule: AD-SlJAZ6 (from UniProt A0A3Q7E7J6)

binding [2]: binds
B1: SlJAZ7-nLUC (protein, UniProt Q9M723 1-228)
chain: B2 chain

binding [1]: binds
B3: AD-SlJAZ7 (protein, UniProt Q9M723 1-228)
chain: B2 chain
